# Reference: paper PMC7819943, “Rice protein-binding microarrays: a tool to detect cis-acting elements near promoter regions in rice”
# The chains behind the UniProt entries cited, without tags or fusion partners.
# UniProt Q0JBA9, entry or part of it: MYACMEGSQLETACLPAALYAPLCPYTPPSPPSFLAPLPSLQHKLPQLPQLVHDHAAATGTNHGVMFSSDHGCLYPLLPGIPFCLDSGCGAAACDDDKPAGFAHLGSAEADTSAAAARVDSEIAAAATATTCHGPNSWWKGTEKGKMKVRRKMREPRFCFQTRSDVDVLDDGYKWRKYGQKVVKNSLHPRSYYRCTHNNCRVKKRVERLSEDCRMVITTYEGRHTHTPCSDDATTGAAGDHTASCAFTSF
# Some of the results follow.
# Target: OsWRKY34 (Oryza sativa, UniProt Q0JBA9 1-250)
# Assay: protein-binding microarray (RPBM); PBS, 2% BSA, 51.3 ng/ul salmon testes DNA, 50 uM zinc acetate, 200 nM TF, 25 C, 1 h; high values mean tight binding
# Conditions: protein: recombinant; tags: N-terminal polyhistidine and DsRed monomer fusion (pET32a); label: CyDye5-dUTP incorporated in the synthesized complementary strand; 3' TTTTT single-stranded linker to array surface; dsDNA, one strand shown
# In short: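 Binding signal is defined as the fluorescence intensity of each feature in arbitrary units, read on an Axon 4000B scanner. Transcription factors with N-terminal polyhistidine and DsRed fusions came from E. coli BL21-CodonPlus and were purified on Ni–NTA. They were incubated at 200 nM for 1 h at 25 °C on a custom Agilent array that had been made double-stranded with Cy5-dUTP, with 50 µM zinc acetate present, and the array was washed.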
row,Sequence,binding signal
1,TATGTCCCTGTGTTGATCCTAATGGTAGCCTTGCTATCTCCGGAGTCACCTAGTGCAG,11700 fluorescence intensity (a.u.)
2,GTAGCCCTCGTCGTCATTCTTATCCTCCTACTTCCGTTACCGGAGTCACCTAGTGCAG,11000 fluorescence intensity (a.u.)
3,GATGATGTGGCTCTATGCATGTCAAGCTTTTGATTCTAGTCGGAGTCACCTAGTGCAG,8070 fluorescence intensity (a.u.)
4,AACCTAAATCCAATGCTACCCTAATCGTGGCCTCCTCGTCCGGAGTCACCTAGTGCAG,8490 fluorescence intensity (a.u.)
5,GCCCATAAACAGATCTAGTGAATTGCATTTTCATAAACATCGGAGTCACCTAGTGCAG,8700 fluorescence intensity (a.u.)
6,AATCGGTTGTTTTTTTCGTCCACACTTAATGCTCCATACACGGAGTCACCTAGTGCAG,8670 fluorescence intensity (a.u.)
7,GGTTCCGATTCCTTCTGGCCATCGATCTTATCTGGATTACCGGAGTCACCTAGTGCAG,9820 fluorescence intensity (a.u.)
8,CATGGGGTTAGGGCTGGTGTGTCCGGCCGCCTTGCGCGCCCGGAGTCACCTAGTGCAG,10800 fluorescence intensity (a.u.)
9,CCAAAGACCAAGAAATAATTATTATCATCTTGTAGTTTGGCGGAGTCACCTAGTGCAG,11300 fluorescence intensity (a.u.)
10,GGTGGGTGTTTTAATGTGACATGATATTTGTGGTTGGGTTCGGAGTCACCTAGTGCAG,21700 fluorescence intensity (a.u.)
11,ACTCATTTCACACTCACACCCCACACAAATTCTCGTATTACGGAGTCACCTAGTGCAG,8400 fluorescence intensity (a.u.)
12,CTGGCCATCACTCCTGACCGTTAGCTCTACCACCCCTCTGCGGAGTCACCTAGTGCAG,8180 fluorescence intensity (a.u.)
13,GCTCTCTTGGCCTAGTGTTACATGTAAACGAATTGATGTACGGAGTCACCTAGTGCAG,8130 fluorescence intensity (a.u.)
14,CTCTCTCCCCTACCTATCTTATCTATCAGCGTCTGTCTCACGGAGTCACCTAGTGCAG,8290 fluorescence intensity (a.u.)
15,AGCAGTTCACTTATTCTCCCTATTTAGGCCTTGTTTAGTCCGGAGTCACCTAGTGCAG,10300 fluorescence intensity (a.u.)
16,TATGCTTTTCATCTCATTTTCCCTATATTCATGTCAAATTCGGAGTCACCTAGTGCAG,8450 fluorescence intensity (a.u.)
17,TCCGGCTGTGTGAGTCGCAAGCGACTTTTTTTCTCTTTTCCGGAGTCACCTAGTGCAG,14300 fluorescence intensity (a.u.)
18,TGCTTGTTATCTTGCTTGGCTGATTGTTTTGTCAAGGAGTCGGAGTCACCTAGTGCAG,9290 fluorescence intensity (a.u.)
19,GCCACCGCCGCCGTCGCCACACTCCACCGCTGGCCCCGCTCGGAGTCACCTAGTGCAG,12900 fluorescence intensity (a.u.)
20,TCTCTCTCCTCAACCAGCTGTCTCGCGGTCGCCGGCGGCGCGGAGTCACCTAGTGCAG,9230 fluorescence intensity (a.u.)
21,TCTCTCTACCCTTCGTCAACTCCTTCAAATCCAGCCTACACGGAGTCACCTAGTGCAG,8590 fluorescence intensity (a.u.)

# 3 records picked at random from those above, as already listed:
row,Sequence,binding signal
8,CATGGGGTTAGGGCTGGTGTGTCCGGCCGCCTTGCGCGCCCGGAGTCACCTAGTGCAG,10800 fluorescence intensity (a.u.)
1,TATGTCCCTGTGTTGATCCTAATGGTAGCCTTGCTATCTCCGGAGTCACCTAGTGCAG,11700 fluorescence intensity (a.u.)
2,GTAGCCCTCGTCGTCATTCTTATCCTCCTACTTCCGTTACCGGAGTCACCTAGTGCAG,11000 fluorescence intensity (a.u.)

# (list continues)

row,Sequence,binding signal
1,TGTCCACATTCCCTGCCCCTGTACTCATTTTTAATTAATTCGGAGTCACCTAGTGCAG,8240 fluorescence intensity (a.u.)
2,CACTGAACTCCACACAGTTGCACAGCCCAATAACCCATTCCGGAGTCACCTAGTGCAG,8720 fluorescence intensity (a.u.)
3,CCGAAACTCCTTTCCTTCTTCCTTTTTGGTCCAATCCTTTCGGAGTCACCTAGTGCAG,9270 fluorescence intensity (a.u.)
4,GTTAATCAGACAAACCTCTCCTTTCATCCTTTGGATACTGCGGAGTCACCTAGTGCAG,8330 fluorescence intensity (a.u.)
5,CACACGATGATGGTTGACTGCTGGGCCCAGTTGTTGACTTCGGAGTCACCTAGTGCAG,8520 fluorescence intensity (a.u.)
6,TCCATTTATTACCGTCATCTTATATAATCTTCAATTAGACCGGAGTCACCTAGTGCAG,8650 fluorescence intensity (a.u.)
7,TCATTTCCGACCGTTTTCATACCTACCTGTAAGCTTAGCCCGGAGTCACCTAGTGCAG,13700 fluorescence intensity (a.u.)
8,GTTCCCTTTGCAGCTAGGACGATACGGCTACACTTTTTTCCGGAGTCACCTAGTGCAG,8170 fluorescence intensity (a.u.)
9,CTGCTGCATCTGCACTGCATGGCCATGCCCACACACTTGGCGGAGTCACCTAGTGCAG,8050 fluorescence intensity (a.u.)
10,ACACCGTTGACTTTTCGACTAACGTTTGACCATTTGTTTTCGGAGTCACCTAGTGCAG,49300 fluorescence intensity (a.u.)
11,ATCAGTTTCTCTCAAATTTTAGTTTTCATATTTTGTACTCCGGAGTCACCTAGTGCAG,8680 fluorescence intensity (a.u.)
12,GGGCTTTTTGGAAATTTGCTTTATTGCGTGCTGTCACATTCGGAGTCACCTAGTGCAG,10600 fluorescence intensity (a.u.)
13,TACTTTTCCTTCTCGACACTACAGTGCCTTCACCTCTTTTCGGAGTCACCTAGTGCAG,9600 fluorescence intensity (a.u.)
14,GGCAGTATTGTTTTTACCTCCTGCTACCTTACTTACATGGCGGAGTCACCTAGTGCAG,9700 fluorescence intensity (a.u.)
15,ATCCTCGCGCCATTAGCTTCGCCTCGACGAGTTGATTCCACGGAGTCACCTAGTGCAG,11400 fluorescence intensity (a.u.)
16,GGTTGTCTATTTTATTTTCTGCGGAGGGAGTAATGTTTTTCGGAGTCACCTAGTGCAG,14400 fluorescence intensity (a.u.)
17,TCTTCACACACACACGCACAACCAACCGCGCCGCCCACACCGGAGTCACCTAGTGCAG,8880 fluorescence intensity (a.u.)
18,GCACGGGCCCACCCGACTTCGGTTGACCAGGGAGCCCACCCGGAGTCACCTAGTGCAG,8610 fluorescence intensity (a.u.)
19,TCATCCACTAATATAAGAGATTTTGACTTTCTCTTACACTCGGAGTCACCTAGTGCAG,8460 fluorescence intensity (a.u.)
20,ACTTATTTTCCTGTTTCATTTAGATGGCCAGTGTCGCACACGGAGTCACCTAGTGCAG,8860 fluorescence intensity (a.u.)
21,ATATTTCCTGTTTGCTCTGTGTTTTCTTCCACCTTCCATTCGGAGTCACCTAGTGCAG,9830 fluorescence intensity (a.u.)

row,Sequence,binding signal
1,CAGGGGCATTTTTCTCCGTTCGGGCATTATAGCGTGTAGTCGGAGTCACCTAGTGCAG,8320 fluorescence intensity (a.u.)
2,TGTCCAGTACTAGTTTTTTTTATGATGTAGAGTTTATGGACGGAGTCACCTAGTGCAG,8490 fluorescence intensity (a.u.)
3,AATTTGTATCGTTGTTTGCTTGAGCCATATTTATGTTACACGGAGTCACCTAGTGCAG,10700 fluorescence intensity (a.u.)
4,GATTCAAAATTCTTTCCTATATCTTCCATTTAAATTTTTTCGGAGTCACCTAGTGCAG,9520 fluorescence intensity (a.u.)
5,CGCCGCTACTCCTTCCCTCCTCGCGCGGCCGCCGCCGCCGCGGAGTCACCTAGTGCAG,8270 fluorescence intensity (a.u.)
6,AGACAGAGTTTGACTTCCATGGTCTTCCTACTTCTTACCTCGGAGTCACCTAGTGCAG,9720 fluorescence intensity (a.u.)
7,CTTCCTCTTTGGTTTTTCAGATCGATTGATTCGTGTTGAACGGAGTCACCTAGTGCAG,9620 fluorescence intensity (a.u.)
8,GTCTATAAAACCGCGACCTATGCTCTCACGCGCGGACCACCGGAGTCACCTAGTGCAG,10700 fluorescence intensity (a.u.)
9,TTCATCGAAGTTTATTTTTCAGCCTTTACTTTTAGATCGCCGGAGTCACCTAGTGCAG,8620 fluorescence intensity (a.u.)
10,CATTTGTCGTTGGGTTTGCAATTAGCGCTCCTCAGATATTCGGAGTCACCTAGTGCAG,12800 fluorescence intensity (a.u.)
11,AGACAAACCCTGATTTCCGTGTCCAACATTTAACCGTCCGCGGAGTCACCTAGTGCAG,8690 fluorescence intensity (a.u.)
12,GCACGCACCACCTCGCGCGGTATAAATTCCCCGCGCCCTCCGGAGTCACCTAGTGCAG,8750 fluorescence intensity (a.u.)
13,ACCACTCCTCCTACTCGACCTCGCGCTCGCTCGCTCGCCCCGGAGTCACCTAGTGCAG,8540 fluorescence intensity (a.u.)
14,TTTTGCTCGCTCCTGTAGAATCTCGTTTCCTTGCACGTAACGGAGTCACCTAGTGCAG,9650 fluorescence intensity (a.u.)
15,AAATTTTGACTCCTTCAGTTAATGATTTTCGTATACAAATCGGAGTCACCTAGTGCAG,8180 fluorescence intensity (a.u.)
16,ATAATCGAACTGATTCATATGAAAATACTGTATTTTTTTCCGGAGTCACCTAGTGCAG,8280 fluorescence intensity (a.u.)
17,GCCCATTTTGATCTTGGCCGTCCATTCCATTCCAGTACGACGGAGTCACCTAGTGCAG,11600 fluorescence intensity (a.u.)
18,ACTGTGCTTCTTCTCCGTGTTGCCACCTCATCGCCATCGCCGGAGTCACCTAGTGCAG,9650 fluorescence intensity (a.u.)
19,CACGCATGCCGCTCCCATTCGCGCGCGACACGAACGCGCCCGGAGTCACCTAGTGCAG,8410 fluorescence intensity (a.u.)
20,AAACCAAACCCTAATATTTCCACCACCATCTACCCATCCTCGGAGTCACCTAGTGCAG,8350 fluorescence intensity (a.u.)
21,TATGTTTGACTAGTTTGTCACTGCTACTCCATTCGTCCCACGGAGTCACCTAGTGCAG,11300 fluorescence intensity (a.u.)

row,Sequence,binding signal
1,TGTGCTTCTTTTTTTAATTTCTCTCTCTGTTTGCTTCTCTCGGAGTCACCTAGTGCAG,9720 fluorescence intensity (a.u.)
2,GAAATCCAAATATGTCTGTTGATCGCTTCCATTTTTACTCCGGAGTCACCTAGTGCAG,8800 fluorescence intensity (a.u.)
3,GATCTATATAACCCCGCGCCATGCAACGCCGCCCCGGCTTCGGAGTCACCTAGTGCAG,8380 fluorescence intensity (a.u.)
4,GTACGTCCAGCCTGCAGCAATTCGGCCGCCCGCCCGTTGACGGAGTCACCTAGTGCAG,10700 fluorescence intensity (a.u.)
5,ATCCAACAGACTGTCCATTCCACACTCTCCATTTTTACTTCGGAGTCACCTAGTGCAG,8960 fluorescence intensity (a.u.)
6,CGTCGTGACCCGCGCCCTGAGTTGGTTGCCTGCCTCGGATCGGAGTCACCTAGTGCAG,8340 fluorescence intensity (a.u.)
7,TATCATATACTCCTACGTCCCGTGTGGTGGTCCAGATGAGCGGAGTCACCTAGTGCAG,8110 fluorescence intensity (a.u.)
8,CACCCGTCGCGTCCAAAATCCAAATCCGCCGCCGCGATCGCGGAGTCACCTAGTGCAG,9490 fluorescence intensity (a.u.)
9,TCCTTTGACTTTTTAACCAGCTGTCTACTAGTAGTACTACCGGAGTCACCTAGTGCAG,17800 fluorescence intensity (a.u.)
10,CATGTGGCTAGAGCTCGAATGTAGTACATTTTGCAATTTACGGAGTCACCTAGTGCAG,8560 fluorescence intensity (a.u.)
11,TACCCACCCGACACTTAATTTTTTATCCCAACCAGCTCAACGGAGTCACCTAGTGCAG,9130 fluorescence intensity (a.u.)
12,ATTAGCGATGTGTTGTGGTGACTTCATTAATATTAAGATACGGAGTCACCTAGTGCAG,8750 fluorescence intensity (a.u.)
13,TAAGGGTGTGTGGTGAAATTAACTAACATATGTTATGTGTCGGAGTCACCTAGTGCAG,8150 fluorescence intensity (a.u.)
14,CTCTCTCTCACACACACACACATCTCTCGATCGCTTGGACCGGAGTCACCTAGTGCAG,9250 fluorescence intensity (a.u.)
15,TACTAGTCAATGCACATATATAAGTATTCATTGATCATCCCGGAGTCACCTAGTGCAG,8530 fluorescence intensity (a.u.)
16,CCCCGCGCGCGTTCTCCCCTCGCCCGCCGCCTGCGCGCCTCGGAGTCACCTAGTGCAG,8210 fluorescence intensity (a.u.)
17,CCTATCCACGAAAGATTTCAGTTCCCAACACCTATATCTTCGGAGTCACCTAGTGCAG,9020 fluorescence intensity (a.u.)
18,GAGTTTGTTTGACATTCCTTATCCTCAATATCAGAAATTTCGGAGTCACCTAGTGCAG,8420 fluorescence intensity (a.u.)
19,ACCACCGCATCCCCAACACCTCACCTCACCTCCTTACACCCGGAGTCACCTAGTGCAG,8180 fluorescence intensity (a.u.)
20,AACGTCAAATCTGTACAAGGCTATTCCTTCGTCATAATATCGGAGTCACCTAGTGCAG,9250 fluorescence intensity (a.u.)
21,AGTCGACCCTGCCCACTGAAAAGTTCTCATCTTGTCGGCGCGGAGTCACCTAGTGCAG,9900 fluorescence intensity (a.u.)
